PubChem BioAssay AID1259254, NCATS, 2017

Aim: 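Finding genes that stop cells copying their DNA twice in one cycle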 (primary screen)
Cells: human HCT116 colorectal cancer cells
Reagents: single siRNA against human genes
Duration: 3 days
Read-out: 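Nuclei stained with Hoechst and imaged; cell-cycle phase assigned by DNA content; G2 share scaled per plate, non-targeting siRNA 0%, GMNN siRNA 100%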
Direction: G2 robust z-score: higher = more G2 cells, more excess DNA replication
Call rule: 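An siRNA counts as active if its G2 robust z-score lies at least 5 MADs above the screen median; here such calls match roughly 38% of GMNN control or more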
Here is a random part of about 59,000 reagents. Over the whole deposit, about 1,550 (2.6%) are marked active. 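G2 share is only a proxy for re-replication; each gene was hit by three separate siRNAs, and active genes were retested.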 A number with no mark means an inactive call. Reagents against one gene are numbered here. Not all columns of the deposit are shown. The record does not give: the amount of reagent.

RNH1 (ribonuclease/angiogenin inhibitor 1) #1 showed G2 robust z-score -0.271.
For RNH1 (ribonuclease/angiogenin inhibitor 1) #2, the values are G2 robust z-score 0.231.
Against RNH1 (ribonuclease/angiogenin inhibitor 1) #3 the deposit lists G2 robust z-score 0.694.
CYTH4 (cytohesin 4) #1 scored G2 robust z-score -1.18.
With knock-down of CYTH4 (cytohesin 4) #2, the record shows G2 robust z-score -0.568.
After knock-down of CYTH4 (cytohesin 4) #3, the record shows G2 robust z-score -0.689.
With knock-down of GLYATL1P4 (glycine-N-acyltransferase like 1 pseudogene 4) #1, the record shows G2 robust z-score 1.85.
Depletion of GLYATL1P4 (glycine-N-acyltransferase like 1 pseudogene 4) #2 resulted in: G2 robust z-score 1.6.
Silencing of GLYATL1P4 (glycine-N-acyltransferase like 1 pseudogene 4) #3 gave: G2 robust z-score 0.437.
Silencing of CFAP77 (cilia and flagella associated protein 77) #1 came out at: G2 robust z-score 0.556.
With knock-down of CFAP77 (cilia and flagella associated protein 77) #2 the results were G2 robust z-score -0.52.
For CFAP77 (cilia and flagella associated protein 77) #3, the values are G2 robust z-score -0.344.

4 entries from above, reformatted:
GLYATL1P4 (glycine-N-acyltransferase like 1 pseudogene 4) #1
- G2 robust z-score: 1.85

GLYATL1P4 (glycine-N-acyltransferase like 1 pseudogene 4) #2
- G2 robust z-score: 1.6

GLYATL1P4 (glycine-N-acyltransferase like 1 pseudogene 4) #3
- G2 robust z-score: 0.437

CFAP77 (cilia and flagella associated protein 77) #1
- G2 robust z-score: 0.556

Additional entries follow.
With knock-down of UBR4 (ubiquitin protein ligase E3 component n-recognin 4) #1, the record shows G2 robust z-score 1.21.
Against UBR4 (ubiquitin protein ligase E3 component n-recognin 4) #2, the entry reads G2 robust z-score -0.166.
For UBR4 (ubiquitin protein ligase E3 component n-recognin 4) #3, the entry reads G2 robust z-score -1.75.
MPP2 (MAGUK p55 scaffold protein 2) #1 gave G2 robust z-score 2.12.
Knock-down of MPP2 (MAGUK p55 scaffold protein 2) #2 resulted in: G2 robust z-score -0.545.
Silencing of MPP2 (MAGUK p55 scaffold protein 2) #3 came out at: G2 robust z-score -0.536.
Knock-down of C15orf40 (chromosome 15 open reading frame 40) #1 came out at: G2 robust z-score -0.456.
C15orf40 (chromosome 15 open reading frame 40) #2 gave G2 robust z-score 0.011.
Against C15orf40 (chromosome 15 open reading frame 40) #3, the values are G2 robust z-score 7.77 (active).
Silencing of ZNF227 (zinc finger protein 227) #1 came out at: G2 robust z-score -0.784.
For ZNF227 (zinc finger protein 227) #2 the deposit lists G2 robust z-score -0.803.
ZNF227 (zinc finger protein 227) #3 showed G2 robust z-score -0.545.
